For 5 molecules, binding results are on record in paper doi:10.1101/493791.

The chains behind the UniProt entries cited, without tags or fusion partners. Where a name states a change or a piece, a line headed by the entry shows the natural chain unless it says otherwise. A line that says so, or that is headed by a name, gives the form on record, which may keep a tag or linker.
UniProt Q969H0: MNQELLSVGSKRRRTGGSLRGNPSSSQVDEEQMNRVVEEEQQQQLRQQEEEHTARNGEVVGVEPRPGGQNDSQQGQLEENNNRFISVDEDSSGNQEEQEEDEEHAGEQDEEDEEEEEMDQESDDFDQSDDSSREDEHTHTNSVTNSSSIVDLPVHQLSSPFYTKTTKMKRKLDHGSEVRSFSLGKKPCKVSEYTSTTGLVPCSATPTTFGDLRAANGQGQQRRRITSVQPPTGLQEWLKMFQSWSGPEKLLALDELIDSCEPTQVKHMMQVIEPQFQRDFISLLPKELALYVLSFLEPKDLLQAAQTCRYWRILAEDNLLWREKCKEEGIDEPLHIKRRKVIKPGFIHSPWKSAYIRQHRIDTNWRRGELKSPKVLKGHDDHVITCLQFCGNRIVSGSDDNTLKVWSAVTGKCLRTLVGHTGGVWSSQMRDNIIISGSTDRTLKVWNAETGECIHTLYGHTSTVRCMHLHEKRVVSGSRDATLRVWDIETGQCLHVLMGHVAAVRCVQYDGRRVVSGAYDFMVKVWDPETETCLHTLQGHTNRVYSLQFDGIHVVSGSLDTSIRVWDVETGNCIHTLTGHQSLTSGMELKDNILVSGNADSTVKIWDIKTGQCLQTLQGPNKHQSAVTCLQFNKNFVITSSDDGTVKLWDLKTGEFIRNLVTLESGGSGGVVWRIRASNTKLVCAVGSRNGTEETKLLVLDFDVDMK
Flag-FBXW7αΔ106-126 (Q969H0, form named): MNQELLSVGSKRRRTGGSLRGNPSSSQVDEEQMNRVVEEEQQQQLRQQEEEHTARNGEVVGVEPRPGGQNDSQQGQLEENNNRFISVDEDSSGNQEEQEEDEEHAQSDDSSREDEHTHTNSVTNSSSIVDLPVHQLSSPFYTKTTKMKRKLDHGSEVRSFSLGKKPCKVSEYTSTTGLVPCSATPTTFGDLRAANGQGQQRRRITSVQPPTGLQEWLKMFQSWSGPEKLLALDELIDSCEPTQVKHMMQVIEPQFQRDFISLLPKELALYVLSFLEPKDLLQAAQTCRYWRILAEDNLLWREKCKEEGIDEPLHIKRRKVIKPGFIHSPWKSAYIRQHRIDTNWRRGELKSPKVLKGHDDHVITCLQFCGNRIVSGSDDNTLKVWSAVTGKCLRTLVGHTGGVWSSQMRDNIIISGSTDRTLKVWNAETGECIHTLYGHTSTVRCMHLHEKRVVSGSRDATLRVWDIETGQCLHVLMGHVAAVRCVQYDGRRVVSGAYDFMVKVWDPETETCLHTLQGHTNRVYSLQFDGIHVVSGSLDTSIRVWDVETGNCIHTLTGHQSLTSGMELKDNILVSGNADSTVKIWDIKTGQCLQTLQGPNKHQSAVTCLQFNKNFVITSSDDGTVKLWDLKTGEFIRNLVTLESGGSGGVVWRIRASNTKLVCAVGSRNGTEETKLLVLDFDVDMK

These are yes or no findings as the source states them, for the method shown. In cells and extracts the contact can be indirect. Some entries that bind do so weakly or less than the wild type. For some assays here: Where a sequence is shown, tags or fusion partners need not be part of it.

Holding throughout (test): co-IP
One experiment deals with T1, Flag-FBXO45 (HEK-293T) (UniProt P0C2W1).
T1 sequence: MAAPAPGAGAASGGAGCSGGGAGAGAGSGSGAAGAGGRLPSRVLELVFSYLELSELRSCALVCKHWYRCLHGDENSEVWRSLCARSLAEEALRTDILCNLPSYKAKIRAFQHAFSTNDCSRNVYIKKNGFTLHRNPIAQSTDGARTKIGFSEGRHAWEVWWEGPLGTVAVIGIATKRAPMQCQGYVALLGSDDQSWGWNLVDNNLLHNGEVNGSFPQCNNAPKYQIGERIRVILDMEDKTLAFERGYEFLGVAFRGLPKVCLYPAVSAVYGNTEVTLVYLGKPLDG

For a further experiment, the target named is T2, HA-FBXO45 (UniProt P0C2W1).
T2 sequence: T1 sequence

In the next experiment the target is T3, Flag-FBXO45 (HeLa) (UniProt P0C2W1).
T3 sequence: T1 sequence

Experiment [1] addresses Flag-FBXW7αΔ106-126 (human) (UniProt Q969H0).
Experiment [2] concerns the target Flag-FBXW7α (full-length) (human) (UniProt Q969H0).
For the next experiment, the target named is T4, Flag-MYCBP2(1951-2950) (UniProt O75592).
T4 sequence: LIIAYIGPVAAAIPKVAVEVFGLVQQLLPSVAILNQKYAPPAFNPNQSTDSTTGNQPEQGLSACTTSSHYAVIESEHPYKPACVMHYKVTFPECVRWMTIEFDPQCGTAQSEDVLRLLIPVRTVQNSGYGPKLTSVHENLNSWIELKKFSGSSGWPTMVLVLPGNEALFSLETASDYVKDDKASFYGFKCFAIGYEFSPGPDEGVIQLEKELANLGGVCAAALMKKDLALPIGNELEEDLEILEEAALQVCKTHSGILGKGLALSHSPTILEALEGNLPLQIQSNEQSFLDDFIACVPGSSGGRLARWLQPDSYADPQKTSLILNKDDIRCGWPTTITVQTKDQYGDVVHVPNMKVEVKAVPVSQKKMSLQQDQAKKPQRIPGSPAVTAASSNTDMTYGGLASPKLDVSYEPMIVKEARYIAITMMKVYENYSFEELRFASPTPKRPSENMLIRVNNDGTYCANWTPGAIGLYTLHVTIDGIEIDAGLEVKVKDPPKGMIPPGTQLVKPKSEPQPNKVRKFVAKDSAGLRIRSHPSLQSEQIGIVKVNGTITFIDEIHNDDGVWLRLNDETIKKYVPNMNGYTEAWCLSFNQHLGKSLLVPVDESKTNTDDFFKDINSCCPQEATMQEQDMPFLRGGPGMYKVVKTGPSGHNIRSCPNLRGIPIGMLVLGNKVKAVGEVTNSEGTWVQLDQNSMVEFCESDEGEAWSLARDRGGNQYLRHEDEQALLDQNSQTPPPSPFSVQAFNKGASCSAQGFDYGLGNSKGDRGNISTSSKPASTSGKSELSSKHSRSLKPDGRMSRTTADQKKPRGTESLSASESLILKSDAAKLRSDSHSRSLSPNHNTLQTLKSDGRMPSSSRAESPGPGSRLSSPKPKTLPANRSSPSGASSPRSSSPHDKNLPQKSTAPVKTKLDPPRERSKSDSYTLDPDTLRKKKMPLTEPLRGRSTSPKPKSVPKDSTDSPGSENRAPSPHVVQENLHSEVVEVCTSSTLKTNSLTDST

Turning to “FBXW7α (endogenous, HEK-293T) (from UniProt Q969H0 1-707)”, the binding result in the experiment with Flag-FBXO45 (HEK-293T) and with HA-FBXO45 was “binds” in each case.

On to “FBXW7α (endogenous, HeLa) (from UniProt Q969H0 1-707)”, for which the binding result with Flag-FBXO45 (HeLa) is reported as “binds”.

Consider “MYCBP2 (endogenous) (from UniProt O75592 1-4678)”, for which the binding result in experiment [1] is “no binding”.

B1: FBXO45 (endogenous) (protein, UniProt P0C2W1 1-286)
chain: T1 sequence
As to B1, the values for the binding entry (in experiment [2]; with Flag-MYCBP2(1951-2950); in experiment [1]) were “binds”, “binds” and “no binding”, respectively.

B2: HA-FBXO45 (protein, UniProt P0C2W1 1-286)
chain: T1 sequence
Take B2: the binding entry in the experiment with Flag-MYCBP2(1951-2950) is recorded as “binds”.
